# Tests used:
# [1] = system: PC3 pancreatic, MDAMB231 breast cancer cells and mouse melanoma cell line B16F10; assay: cells
# [2] = Reverse pH gradient encapsulation efficiency of staurosporine in liposomes
smiles,measurement,setting,value
"CN[C@@H]1C[C@H]2O[C@@](C)([C@@H]1OC)n1c3ccccc3c3c4c(c5c6ccccc6n2c5c31)C(=O)NC4 [free staurosporine, (9S, 10R, 11R, 13R)-2,3,10,11,12,13-Hexahydro-10-methoxy-9-methyl-11-(methylamino)-9,13-epoxy-1H,9H-diindolo[1,2,3-gh:3′,2′r-lm]pyrrolo[3,4-j][1,7]benzodiazonin-1-one]",EC50,[1],10 to 50 µM
same,Encapsulation efficiency,"[2]; external buffer HEPES or PBS pH 3, internal buffer pH 7.4",~70%
same,Encapsulation efficiency,"[2]; internal buffer pH 7.4, ammonium phosphate 300 mM, external pH 3",70%
same,Encapsulation efficiency,"[2]; internal buffer pH 7.4, ammonium sulfate, external pH 3",65%
same,Encapsulation efficiency,"[2]; internal buffer pH 7.4, sodium phosphate or sodium sulfate, external pH 3",3-4%
same,Loading of staurosporine (encapsulation efficiency),[2]; internal pH of 3 and external pH of 7.4,~5%
